Assay results taken from US20090305962A1 (Amgen, published 2009).
Numbering of substitutions follows the chain as printed.

T1: human IL-6 (human, UniProt P05231 30-212)
T1 construct: the protein used was bought recombinant human IL-6 (R&D Systems), in part biotinylated; also called rhIL-6; hIL-6
T1 sequence: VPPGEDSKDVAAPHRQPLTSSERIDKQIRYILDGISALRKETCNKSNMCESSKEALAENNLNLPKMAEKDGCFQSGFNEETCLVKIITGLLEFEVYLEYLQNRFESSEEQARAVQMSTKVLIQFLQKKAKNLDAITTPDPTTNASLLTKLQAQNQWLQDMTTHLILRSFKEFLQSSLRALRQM

B1: SEQ ID NO 865 (designed binder)
chain: CPSDEFRCGNGQCIPLDWVCDGVNDCPDDSDEEGCPPRTCAPSQFQCGSGYCISQRWVCDGENDCEDGSDEANCAGSVPTCPSDEFRCRNGRCIPRAWRCDGVNDCADNSDEEDCTEHT
B2: SEQ ID NO 904 (designed binder)
chain: B1 chain with P2L, S3P, E5Q, P27A, D29N, E33T, P37T, A41L, P42S
B3: SEQ ID NO 922 (designed binder)
chain: CLPDMFRCGTRQCIPLDWVCDGVNDCADNSDETGCPTRTCLPSQFQCGSGYCISQRWVCDGENDCEDGSDEANCAGSVPTCPSDEFRCRNGRCIPRSWCCDGVNDCADNSDEEDCTEHT
B4: SEQ ID NO 821 (designed binder)
chain: CPSSQFRCSSGRCVPADWLCDGVNDCADNSDETGCPTRTCLPSQFQCGSGYCISQRWVCDGENDCEDGSDEANCAGSVPTCPSDEFRCRNGRCIPRAWRCDGVNDCGDSSDETSCSAPASEPPGSL
B5: SEQ ID NO 822 (designed binder)
chain: CPSDEFTCDSGRCVSLNWLCDGVNDCGDNSDEAGCPTRTCLPSQFQCGSGYCISQRWVCDGENDCEDSSDEANCAGSVPTCGANEFTCDNGRCLSPDLVCDGVDDCADSSDETDCQKPM
B6: SEQ ID NO 823 (designed binder)
chain: CPSDEFTCDSGRCVSLNWLCDGVNDCGDNSDEAGCPTRTCLPSQFQCGSGYCISQRWVCDGENDCEDSSDEANCAGSVPTCPPDEFQCNSGSCLSQPLLCDGEDDCGDGSDEESCIAAEHT
B7: SEQ ID NO 824 (designed binder)
chain: CLSDEFTCDSGRCVSLNWLCDGVNDCGDNSDEAGCPTHTCLPSQFQCGSGYCISQRWVCDGENDCEDSSDEANCAGSVPTCPASEFRCNNGRCIPAQWRCDGVNDCGDDSDEASCQAPT
B8: SEQ ID NO 825 (designed binder)
chain: CQANEFTCSSGNCLSPALLCDGVDDCGDNSDETNCASPAPTCLPSQFQCGSGYCISQRWVCDGENDCEDSSDEANCAGSVPTCPSDEFRCRNGRCIPRAWRCDGVNDCADNSDEEDCTEHT
B9: SEQ ID NO 826 (designed binder)
chain: CELNEFTCSSGNCLSPALLCDGVDDCGDNSDETNCASPAPTCLPSQFQCGSGYCISQRWVCDGENDCEDGSDEANCAGSVPTCPSDEFRCRNGRCIPRAWRCDGVNDCADNSDEANCAGSVPT
B10: SEQ ID NO 827 (designed binder)
chain: CQANEFTCSSGNCLSPALLCDGVDDCGDNSDETYCASPAPTCLPSQFQCGSGYCISQRWVCDGENDCEDSSDEANCAGSVPTCQPGEFTCESGRCLPLRWLCDGEDDCVDSSDEASCQPPT
B11: SEQ ID NO 828 (designed binder)
chain: CQANEFTCSSGNCLSPALLCDGVDDCGDNSDETYCASPAPTCLPSQFQCGSGYCISQRWVCDGENDCEDSSDEANCAGSVPTCLSGEFTCENGNCLSLSLVCDGEDDCEDGSDEASCPPPT
B12: SEQ ID NO 877 (designed binder)
chain: B10 chain with T33A
B13: SEQ ID NO 878 (designed binder)
chain: B10 chain with T33A
B14: SEQ ID NO 829 (designed binder)
chain: CQANEFTCSSGNCLSPALLCDGVDDCGDNSDETNCASPAPTCLPSQFQCGSGYCISQRWVCDGEHDCEDSSDEANCAGSVPTCAPGEFTCGSGRCVPQTWRCDGVDDCLDSSDETDCSAPASEPPGSL
B15: SEQ ID NO 850 (designed binder)
chain: CLPSEFQCRDSKICLSADWLCDGVNDCVDGSDEAGCPPRTCLPDQFQCGSGYCISQRWVCDGENDCEDSSDEANCAGSVPTCRASQFQCGSGYCIPRPWLCDGDNDCEDDSDETNCTPRT
B16: SEQ ID NO 856 (designed binder)
chain: CLPDQFRCGNGQCMPLDWVCDGVYDCPDDSDEEGCPPRTCAQSKFQCGSGYCISQRWVCDGEYDCEDGSDEANCADSVPTCPSDEFRCRNGRCIPRGWRCDGVNDCADSSDEEDCTENP
B17: SEQ ID NO 864 (designed binder)
chain: B1 chain with E5K, R92Q, R96L, A97D, R99V, A107P, N109D
B18: SEQ ID NO 870 (designed binder)
chain: CLPDQFRCGNGQCTPLDWVCDGVNDCPDDSDEEGCPPRTCAPSQFQCGSGYCIPQRWVCDGENDCEDGSDEANCAGSVPTCPSGEFQCSNGRCIPWAWRCDGVNDCADNSDEEDCTEPP
B19: SEQ ID NO 874 (designed binder)
chain: CLAHQFLCGNGQCLPLDWVCDGVTDCPDDSDEVGCPPRTCAPSHFQCGSGYCISQSWVCDGEYDCEDGSDEASCAGSVPSCPSDEFQCRNGRCIPRPWRCDGVNDCADNSDEEDCTEHT
B20: SEQ ID NO 884 (designed binder)
chain: CLSDQFRCGEGQCIPLDWVCDGVSDCGDDSDEEGCPPSTCAPSQFQCGSGYCISQNWVCDGENDCEDGSDEANCAGCVPTCPADEFRCRDGRCIPRAWRCDGVNDCGDKSDEEDCTENT
B21: SEQ ID NO 902 (designed binder)
chain: CRPDQFRCDNGHCIQLDWVCDGVNDCQDDSDEDGCPPRTCAQSQFQCGSGYCISQSWVCDGENDCEDGSDEANCAGSVPTCPSDEFRCRNGRCIPRAWRCDGINDCEDHSDEEDCKAHT
B22: SEQ ID NO 921 (designed binder)
chain: CLRDQFRCGNGQCIPLDWACDGINDCPDDSDEGGCPPRMCAPSQFQCGSGYCIPLGWVCDGENDCEDGSDEANCAGSEPTCPSGEFRCRNGRCIPRAWLCDGVNDCADNSDEEDCTGHT
B23: SEQ ID NO 927 (designed binder)
chain: B1 chain with P2V, E5Q, I14L, R38L, N63Y, R99C, V103I, A107T, H118Y
B24: SEQ ID NO 627 (designed binder)
chain: CLPNQFQCRSGQCIPRPWVCDGDNDCGDDSDEANCKAPVHTCLPSQFQCGSGYCISQRWVCDGENDCEDSSDEANCGRTEPT

Key:
human IL-6 [1] = target: T1, human IL-6; assay: ELISA on IL-6 (also TF1 cell assay)
human IL-6 [2] = target: T1, human IL-6; assay: panning and screening on IL-6

Row | Binder | binding result (human IL-6 [1]) | binding result (human IL-6 [2])
1 | B1 | binds | –
2 | B2 | binds | –
3 | B3 | binds | –
4 | B4 | – | binds
5 | B5 | – | binds
6 | B6 | – | binds
7 | B7 | – | binds
8 | B8 | – | binds
9 | B9 | – | binds
10 | B10 | – | binds
11 | B11 | – | binds
12 | B12 | binds | –
13 | B13 | binds | –
14 | B14 | – | binds
15 | B15 | – | binds
16 | B16 | binds | –
17 | B17 | binds | –
18 | B18 | binds | –
19 | B19 | binds | –
20 | B20 | binds | –
21 | B21 | binds | –
22 | B22 | binds | –
23 | B23 | binds | –
24 | B24 | – | binds
